Measured values published in patent publication US11000506B2, “Envenomation therapies and related pharmaceutical compositions, systems and kits” (OPHIREX, INC, priority 2014, dated 2021).

Target: snake venom metalloproteinase
Assay: IC50 for MP inhibition on various venoms (Table 8, FIG. 20)
Format: biochemical
Conditions: general statement; values only in figures

With `O=C(CCCCCCC(=O)Nc1ccccc1)NO` [Vorinostat] the “IC50s on various venoms” value was “micromolar range”.
